Source: patent US5990179A, “Composition and method of enhancing electrotransport agent delivery” (ALZA Corporation, priority 1995, dated 1999)

Details: pH 7

Structure (SMILES): CCN(CC)CC(=O)Nc1c(C)cccc1C [lidocaine]
- pH of the donor formulation above which lidocaine exhibits enhanced transdermal electrotransport flux: above 7
